Tests used:
Type in all cases: biochemical
Settings in all cases: lower numbers mean greater stability
[1] = tested on: β-lactamase, organism TEM
Text: (§1) The compounds of the invention also have good stability to β-lactamases.

[2] = tested on: β-lactamase, organism 1313G; test: Stability to β-lactamase (Table V)
Text: as §1

[3] = tested on: β-lactamase, organism 265A; test: Stability to β-lactamase (Table V)
Text: as §1

[4] = tested on: β-lactamase, organism 1082E; test: Stability to β-lactamase (Table V)
Text: as §1

[5] = tested on: β-lactamase, organism PS185; test: Stability to β-lactamase (Table V)
Text: as §1

CC1=C(C(=O)O)N2C(=O)[C@@H](NC(=O)[C@H](N)c3ccccc3)[C@H]2SC1 [Cephalexin]
Stability to β-lactamase [1]: 1 | Stability to β-lactamase [2]: 254 | Stability to β-lactamase [3]: 72 | Stability to β-lactamase [4]: 6 | Stability to β-lactamase [5]: 37
